According to paper PMC12040169 (PLOS Biology, 2025):
The list shows a part of the results.

Each compound was assayed on T1, CTL2-GFP (C. trachomatis L2/434/Bu, GFP-expressing). Conditions: bulk GFP, single well; 28.5 h, 10 µM; inhibitor.
T1 construct: L2/434/Bu, GFP-expressing
Parameters: species or system HeLa; Intracellular C. trachomatis growth in HeLa cells, bulk GFP fluorescence relative to DMSO

First: CCn1nc(C)c(C(C)NC(=O)c2ccnn2C(F)F)c1C (stereo not shown) [CBK281535]
Second: CCOC(=O)C(C)n1nc(CC)n2c(cc3sc(C)cc32)c1=O (stereo not shown) [CBK284123]
The “% of control remaining” value of the first is lower: 123.498% for the first, 137.701% for the second.

First: O=C(COc1ccc(S(=O)(=O)N2CCCC2)cc1Cl)NCC1CCCO1 (stereo not shown) [CBK268243]
Second: O=C(CSc1nc(-c2cccc([N+](=O)[O-])c2)cs1)NCC1CCCO1 (stereo not shown) [CBK268020]
The “% of control remaining” value of the first is lower: 114.521% for the first, 125.354% for the second.

Compared with CC1CNCCN1C(=O)c1ccnc(N2CCN(C)CC2)c1 (stereo not shown) [CBK304122], O=C(C[C@@H]1CCNC[C@@H]1Cc1cc(-c2ccccc2)on1)N1CCN(c2ccccn2)CC1 [CBK289150] is higher in “% of control remaining” value: 122.593% for the first, 150.233% for the second.

Compared with CCOC(=O)C(NCCc1ccc(OC)c(OC)c1)(NC(=O)c1ccco1)C(F)(F)F (stereo not shown) [CBK013715], COc1ccc(C2C(C(=O)c3ccc(C)cc3)=C(O)C(=O)N2CCN(C)C)cc1OC (stereo not shown) [CBK264463] is higher in “% of control remaining” value: 95.9475% for the first, 100% for the second.

Compared with O=C(O)c1ccccc1-c1ccc(/C=C2\S/C(=N\c3ccccc3)N(c3ccccc3)C2=O)o1 [CBK262566], O=c1n(C(c2ccccc2)c2ccccc2)ccn1S(=O)(=O)c1cccc(Cl)c1 [CBK106615] is higher in “% of control remaining” value: 103.035% for the first, 103.115% for the second.

Compared with COc1ccc(S(=O)(=O)NCCNC(=O)c2cc(Br)cnc2N(C)S(C)(=O)=O)cc1 [CBK076477], COc1ccc(C(=O)Nc2nc3ccc(S(C)(=O)=O)cc3s2)cc1 [CBK287338] is higher in “% of control remaining” value: 103.115% for the first, 129.913% for the second.

First: CN(C)C(CNc1nccnc1-c1ccccc1F)c1cccnc1 (stereo not shown) [CBK037290]
Second: CC(C)[C@@H](CO)Nc1cncc(-c2ccc3ccccc3c2)n1 [CBK065546]
The “% of control remaining” value of the first is lower: 90.2121% for the first, 158.142% for the second.

First: Nc1nnc(CCS(=O)(=O)c2ccc(Br)cc2)s1 [CBK026286]
Second: Nc1nnc(SC2c3cccc4cccc(c34)C2NS(=O)(=O)c2ccc(Cl)cc2)s1 (stereo not shown) [CBK266373]
The “% of control remaining” value of the first is lower: 87.6338% for the first, 118.856% for the second.

First: CC(CNC1CCCC1)C(O)(c1ccccc1)c1ccccc1 (stereo not shown) [CBK012237C]
Second: c1ccc(Cn2c(CN3CCCC3)nc3ccccc32)cc1 [CBK269612]
The “% of control remaining” value of the first is lower: 140.844% for the first, 148.629% for the second.

Compared with CC(C)Nc1cncc(OCCCN(C)C)n1 [CBK115600], COc1cncc(-c2cc(Nc3cccc(OC)c3OC)ncn2)c1 [CBK090728] is lower in “% of control remaining” value: 114.69% for the first, 69.5027% for the second.

First: O=c1[nH]c(=O)n([C@H]2C[C@@H](O)[C@@H](CO)O2)cc1CCO [CBK201239]
Second: CCCc1[nH]nc(O)c1Cc1ccccc1C(F)(F)F [CBK075037]
The “% of control remaining” value of the first is higher: 122.159% for the first, 116.577% for the second.

First: COC(=O)COc1ccc(S(=O)(=O)N2CCC(C(N)=O)CC2)cc1 [CBK265993]
Second: CCOC(=O)N[C@@H](CC1CCCCC1)C(=O)NCCc1ccc(S(N)(=O)=O)cc1 [CBK015131]
The “% of control remaining” value of the first is higher: 170.504% for the first, 152.715% for the second.

Compared with O=C(NC1CCN(Cc2ccccc2)CC1)c1cnc(-c2ccc(Cl)cc2)c(-c2cccnc2)c1 [CBK037602], O=C(Oc1ccc2c(=O)c(Oc3ccc(-c4ccccc4)cc3)coc2c1)c1cccnc1 [CBK264479] is lower in “% of control remaining” value: 123.139% for the first, 97.7748% for the second.

Going from COc1cccc2cc(C(=O)NCCCSC)oc12 [CBK149793] to CCOc1ccccc1NC(=O)CSc1nc(N)cc(O)n1 [CBK268075], the “% of control remaining” value falls from 105.637% to 104.792%.

Compared with CCCCNC(=O)CSc1ncccc1C(=O)NCc1cccnc1 [CBK071590], O=C(Nc1cccnc1)c1ccnc(Cl)c1 [CBK089829] is higher in “% of control remaining” value: 105.927% for the first, 119.372% for the second.

First: c1ccc(CN2CCN(CCN3CCn4c3nc3ccccc34)CC2)cc1 [CBK265472B]
Second: CCCn1c(Nc2nc3ccccc3n2C)nc2ccccc21 [CBK268310]
The “% of control remaining” value of the first is higher: 117.965% for the first, 117.379% for the second.

Compared with COc1cc2ncc(C(=O)NCc3cccs3)c(O)c2cc1OC [CBK159998], COC(=O)C1C(=O)c2cc3c(cc2C1c1cc(OC)c(OC)c(OC)c1)OCO3 (stereo not shown) [CBK200099] is higher in “% of control remaining” value: 75.3089% for the first, 112.868% for the second.

First: CC(C)C(=O)N1CC2(CCN(Cc3nc4ccccc4[nH]3)CC2)c2ccccc21 [CBK126719]
Second: COc1ccc(CNC(=O)NC(=O)C2CCN(CCc3c[nH]c4ccccc34)CC2)c(OC)c1 [CBK034864]
The “% of control remaining” value of the first is lower: 81.6272% for the first, 162.68% for the second.

Going from COc1ccc(C)cc1N(CC(=O)Nc1ccccc1C(=O)O)S(C)(=O)=O [CBK264009] to NC(=O)c1cccc(COc2ccccc2C(=O)Nc2ccc(-c3ccsc3)cc2C(=O)O)c1 [CBK001718], the “% of control remaining” value rises from 100% to 126.76%.

First: CN1C(=O)CC2(C1=O)C(=O)N(CCCCOc1ccccc1)c1ccc(F)cc12 (stereo not shown) [CBK075408]
Second: O=C(NCc1ccccn1)C1CC(=O)N(c2ccccc2)C1 (stereo not shown) [CBK270175]
The “% of control remaining” value of the first is lower: 113.509% for the first, 135.814% for the second.

Compared with Cc1cc(NCC2CCCO2)n2nc(C)c(-c3ccccc3)c2n1 (stereo not shown) [CBK304531], Cc1ccccc1C(=O)NC(NCC1CCCO1)C(Cl)(Cl)Cl (stereo not shown) [CBK262273] is higher in “% of control remaining” value: 118.267% for the first, 120.794% for the second.

Going from Cc1cc(N2CCN(C(=O)OC(C)(C)C)CC2)nc(N)n1 [CBK001843] to Cc1cc(N(C)C)cc(C2CCCN(C(=O)C3CCC3)C2)n1 (stereo not shown) [CBK282004], the “% of control remaining” value rises from 71.5303% to 170.252%.

Going from O=C1CCCN1CCC1CCN(c2nccc(CCC(F)(F)F)n2)CC1 [CBK307534] to CN1CCC(Cc2nc(-c3cccc(OC(F)F)c3)n(CCO)n2)CC1 [CBK307294], the “% of control remaining” value rises from 122.222% to 131.225%.

Going from COc1cccc(/C=C\c2onc(C)c2[N+](=O)[O-])c1OCC(=O)O [CBK269063] to COc1ccc(NC(=O)c2cc(-c3cccc(Cl)c3)nc3ccccc23)c([N+](=O)[O-])c1 [CBK267777], the “% of control remaining” value falls from 133.41% to 100%.

First: Cc1ccc([N+](=O)[O-])cc1NS(=O)(=O)Cc1ccc(Cl)cc1 [CBK111359]
Second: O=C(O)c1ccc(NS(=O)(=O)c2cc(F)c(Br)cc2F)cc1 [CBK034045]
The “% of control remaining” value of the first is higher: 101.342% for the first, 100% for the second.

Compared with CCCNc1nc(Nc2ccc(C)cc2)nc(N2CCOCC2)n1 [CBK266664], CC1(C)Cc2nc(N3CCOCC3)ncc2C(NC(=O)c2cccs2)C1 (stereo not shown) [CBK307369] is lower in “% of control remaining” value: 149.271% for the first, 120.312% for the second.

Compared with Cc1c(-c2cccc(C(=O)N(CCO)C3CCS(=O)(=O)C3)c2)cnn1C (stereo not shown) [CBK307621], CCc1c(-c2cccc(C(=O)N3CCS(=O)(=O)CC3)c2)cnn1C [CBK307487] is higher in “% of control remaining” value: 131.393% for the first, 147.823% for the second.

First: CC1(C)SC2c3ccccc3C(=O)N2[C@@H]1C(=O)N1CCC(C(=O)O)CC1 (stereo partly shown) [CBK286760]
Second: Cc1cccc2cnc(C3CCN(C(=O)c4cnn(C)c4C)CC3)cc12 [CBK285196]
The “% of control remaining” value of the first is higher: 127.391% for the first, 100.302% for the second.

Going from O=S(=O)(Nc1nc2ccccc2nc1Nc1ccccc1)c1ccccc1 [CBK260953] to S=C(NCc1ccco1)NCc1cn(-c2ccccc2)nc1-c1ccccc1 [CBK266895], the “% of control remaining” value falls from 107.686% to 96.1185%.

Compared with CN(C)c1cccc(-c2nc(-c3ccc(C#N)cc3)cnc2N)c1 [CBK064049], O=C(COc1ccc2ccccc2c1)Nc1ccc(Cl)cc1Cl [CBK263598] is lower in “% of control remaining” value: 138.532% for the first, 96.3013% for the second.

Compared with CN(C)CC(=O)N1Cc2cccc3c2c(cn3S(=O)(=O)c2ccccc2)C1 [CBK155548T], Cc1ncccc1Oc1ccc(NC(=O)N2CCc3ccccc3CC2)cn1 [CBK018383] is lower in “% of control remaining” value: 119.766% for the first, 73.026% for the second.

First: CSCCN(C)c1nc2c(c(=O)[nH]1)Cc1ccccc1OC2 [CBK307523]
Second: CN(C)CCCn1c(NCc2ccc3c(c2)OCO3)nc2ccccc21 [CBK278273C]
The “% of control remaining” value of the first is lower: 92.7961% for the first, 126.841% for the second.

Going from CCN(CC)C(=O)Cn1ncc2c3oc(C)cc3n(C(C)C)c2c1=O [CBK282848] to Cc1oc2ccc(O)cc2c1C(=O)NC(C)(C)CN1CCCC(C)C1 (stereo not shown) [CBK282601], the “% of control remaining” value falls from 128.685% to 124.518%.

Compared with Clc1ccc(/C=N/Nc2nnn[nH]2)c(Cl)c1 [CBK262034], c1nnc(SCc2ccc(CSc3nnc[nH]3)cc2)[nH]1 [CBK263282] is higher in “% of control remaining” value: 117.273% for the first, 123.517% for the second.

Compared with CCCN1CCC(CNC(=O)c2cc(C3CCCCC3)no2)CC1 [CBK283297], O=C1N=C(NC2CCCCCC2)SC1C(=O)N1CCCCCC1 (stereo not shown) [CBK085513] is higher in “% of control remaining” value: 124.644% for the first, 139.13% for the second.

First: CC1(C)C(=O)OC(C(=O)c2ccc(Br)cc2)C(C)(C)C1=O (stereo not shown) [CBK264600]
Second: NC(=O)CC1Nc2cccc3cccc(c23)NC1=O (stereo not shown) [CBK267560]
The “% of control remaining” value of the first is lower: 100% for the first, 129.81% for the second.

First: O=C(NCc1ccc(C(F)(F)F)nc1)OCCc1ccncc1 [CBK200132]
Second: Cc1ncsc1CCOc1cc(C(F)(F)F)ccn1 [CBK115785]
The “% of control remaining” value of the first is higher: 93.757% for the first, 84.425% for the second.

Going from COc1cc(OC)c(CCNC2CCCc3c2cnn3C)c(OC)c1 (stereo not shown) [CBK304482] to COc1ccc(CN2CCC(Oc3nccnc3OCc3cc(C)on3)CC2)cc1 [CBK082953T], the “% of control remaining” value rises from 31.9081% to 118.571%.

Compared with c1ccc2c(c1)OCC(COc1ccnc(N3CCCN(CCc4ccc5ccccc5c4)CC3)n1)O2 (stereo not shown) [CBK083983], O=C(CSc1nnc(C2CC2)o1)Nc1ccc(CN2CCOCC2)cc1 [CBK305015] is higher in “% of control remaining” value: 110.338% for the first, 132.104% for the second.

In the case of CC(C)CNS(=O)(=O)c1ccc(CCC(=O)O)cc1 [CBK287107], the “% of control remaining” value is reported as 118.076%.
